Assay results as given in PMC10730906.
These are yes or no findings as the source states them, for the method shown. Binding can be weak; no strength is given. For some of these results: Tags and fused reporters may be left off the sequences shown. For some of these results: Binding seen in cells or lysates may run through a third protein.

Amino acid sequences for entries named in this document (tags omitted). A change or cut given only in a name is not applied to a line headed by its entry.
UniProt Q2G0W7: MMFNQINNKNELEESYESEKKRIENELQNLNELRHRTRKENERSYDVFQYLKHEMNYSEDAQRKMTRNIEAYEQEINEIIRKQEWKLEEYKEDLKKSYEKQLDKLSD
UniProt Q2G0W6: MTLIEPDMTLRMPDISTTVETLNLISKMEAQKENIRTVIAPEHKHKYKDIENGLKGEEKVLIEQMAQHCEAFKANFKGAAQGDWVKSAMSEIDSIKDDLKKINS

Assays:
[1] = biological target: T1, His-TilA without its signal sequence (SAOUHSC_00405), as coproduced in the complex (S. aureus) (UniProt Q2G0W9); experiment: pull-down + SEC; His-TilA, TslA, TlaA1-Strep and TlaA2-Myc coproduced; lysate on HisTrap, peak fraction on StrepTrap, then SEC; SDS-PAGE of peak fractions
T1 sequence: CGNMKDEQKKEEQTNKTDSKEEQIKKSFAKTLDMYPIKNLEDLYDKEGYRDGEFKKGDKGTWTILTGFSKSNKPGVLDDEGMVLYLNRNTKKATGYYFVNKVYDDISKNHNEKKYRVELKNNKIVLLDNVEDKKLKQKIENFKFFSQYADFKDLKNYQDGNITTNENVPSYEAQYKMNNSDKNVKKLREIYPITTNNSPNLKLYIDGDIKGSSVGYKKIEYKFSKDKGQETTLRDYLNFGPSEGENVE

[2] = biological target: Strep-tagged TlaA1 (SAOUHSC_00407) (S. aureus) (UniProt Q2G0W7); experiment: as above
[3] = biological target: Strep-tagged TlaA1 (SAOUHSC_00407) (S. aureus) (UniProt Q2G0W7); experiment: pull-down + SEC; His-TslACT, Strep-TlaA1 and Myc-TlaA2 co-overproduced; successive Ni-affinity and Streptactin-affinity purification, then SEC; peak fractions analysed by SDS-PAGE and western blot (anti-TslA, anti-Strep, anti-Myc)
[4] = biological target: T1, His-TilA without its signal sequence (SAOUHSC_00405), as coproduced in the complex (S. aureus); experiment: cryo-EM structure; co-purified TilA-TslA-TlaA1-TlaA2 complex at 0.5 mg/ml; 7.3 Å volume; AlphaFold model fitted as a rigid body; no density for TlaA1
[5] = biological target: TslA lipase domain, bacterial two-hybrid fusion (S. aureus); experiment: two-hybrid; bacterial two-hybrid, T18 and T25 fusions co-transformed into E. coli BTH101, spotted on MacConkey agar with 1% maltose, 30 °C for 40 h

Molecule: Myc-tagged TlaA2 (SAOUHSC_00408) (from UniProt Q2G0W6)
- binding [1]: binds
- binding [2]: binds
- binding [3]: binds

Molecule: Strep-tagged TlaA1 (SAOUHSC_00407) (from UniProt Q2G0W7)
- binding [1]: binds

Molecule: TslA (SAOUHSC_00406) as coproduced in the TilA-TslA-TlaA1-TlaA2 complex (S. aureus)
- binding [4]: binds
- binding [1]: binds

B1: TilA, bacterial two-hybrid fusion (protein, UniProt Q2G0W9 1-270)
chain: MEYIKKIALYMSVLLLIIFIGGCGNMKDEQKKEEQTNKTDSKEEQIKKSFAKTLDMYPIKNLEDLYDKEGYRDGEFKKGDKGTWTILTGFSKSNKPGVLDDEGMVLYLNRNTKKATGYYFVNKVYDDISKNHNEKKYRVELKNNKIVLLDNVEDKKLKQKIENFKFFSQYADFKDLKNYQDGNITTNENVPSYEAQYKMNNSDKNVKKLREIYPITTNNSPNLKLYIDGDIKGSSVGYKKIEYKFSKDKGQETTLRDYLNFGPSEGENVE
- binding [5]: binds weakly
